Data as given in patent US11760775B2, “Steroids and protein-conjugates thereof” (Regeneron Pharmaceuticals, Inc., priority 2016, dated 2023).
Structures can show the parent of a compound that is named as a salt. For some assays here: The name of at least one read-out is uncertain. For some assays here: At least one compound was matched to its structure with a doubt left.

Key:
[1] = system: GR activation in 293/GRE-Luc cells (293_PBind GR/UAS-Luc); assay: Luciferase reporter assay in antigen negative 293/GRE-Luc cells; type: cell-based, human; conditions: 72 hrs of incubation
[2] = system: GR activation in 293/PRLR/GRE-Luc cells (HEK293/9xUAS-Luc2P/pBind-GR/PRLR-HA high cells); assay: GR co-activator luciferase reporter cell based assay in 293/PRLR/GRE-Luc cells; set-up: species or system human; conditions: fold activation vs Budesonide
Description: Bioassays described herein were used to assess the efficacy of free steroids and anti-PRLR-ncADCs. In one example, the bioassay assessed the activity of steroids, after internalization of a site-specific anti-PRLR-GC steroid ADC into cells, to bind to pBIND-GR and subsequent luciferase reporter activation. […] Then such stable cell line was further transfected with a chimeric receptor consisting of a GR ligand binding domain fused to the yeast Gal4 DNA binding domain (pBind-GR, Promega Cat #E1581), and a Gal4 upstream activator sequence (9×Gal4UAS-Luc2P) that drives luciferase gene expression.
For this assay, 20,000 cells were seeded in 96-well plates in media containing DMEM supplemented with 10% FBS and pencillin/streptomycin (complete media) and grown overnight at 37° C. in 5% CO2. […] Luciferase activity was determined by addition of OneGlo™ reagent (Promega, Cat #E6130) and relative light units (RLUs) were measured on a Victor luminometer (Perkin Elmer). The EC50 values were determined from a four-parameter logistic equation over a 10 point response curve using GraphPad Prism.
For this assay, 20,000 cells were seeded in 96-well plates in media containing DMEM supplemented with 10% FBS and pencillin/streptomycin (complete media) and grown overnight at 37° C. in 5% CO2. […] Minimal activation in this assay is defined as less than 10% of the maximal activation measured with the free payload.

SMILES | IC50 value (so in the source) of activation [1] | HEK293/9xUAS-Luc2P/pBind-GR/PRLR-HA high cells activation relative to Budesonide [2]
CCCC1O[C@@H]2C[C@H]3[C@@H]4C[C@H](F)C5=CC(=O)C=C[C@]5(C)[C@@]4(F)[C@@H](O)C[C@]3(C)[C@]2(C(=O)CN)O1 (stereo partly drawn) [Compound 4b, (1S,2S,4R,6R,8S,9S,11S,12R,13S,19S)-8-(2-Aminoacetyl)-12,19-difluoro-11-hydroxy-9,13-dimethyl-6-propyl-5,7-dioxapentacyclo[10.8.0.0^2,90.0^4,80.0^13,18]icosa-14,17-dien-16-one; trifluoroacetic Acid Salt] | better IC50 value than Budesonide and Dexamethasone | –
CCCC1O[C@@H]2C[C@H]3[C@@H]4C[C@H](F)C5=CC(=O)C=C[C@]5(C)[C@@]4(F)[C@@H](O)C[C@]3(C)[C@]2(C(=O)COc2ccc(N)c(F)c2)O1 (stereo partly drawn) [Compound 6-III, (1S,2S,4R,8S,9S,11S,12R,13S,19S)-8-[2-(4-Amino-3-fluorophenoxy)acetyl]-12,19-difluoro-11-hydroxy-9,13-dimethyl-6-propyl-5,7-dioxapentacyclo[10.8.0.0^2,90.0^4,8.0^13,18]icosa-14,17-dien-16-one] | – | Full
